Consider 40 compounds from the supplement of paper PMC8846439.

Structures can show the parent of a compound that is named as a salt. The list shows a part of the results. Repeats are few or missing, and single values can be far off.

The experiment deals with Trypanosoma brucei brucei bloodstream form L262P (kDNA-independent). Description: viability Z-score (nuclei count per well, median-polish normalised, relative to plate distribution); higher = more viable parasites (negative = growth inhibition). The settings on record: 4 days; compound concentration: 10 µM (some Prestwick/PKE rows may be 1 µM / not distinguished).
As for `CC1(C)[C@H]2CC[C@]1(C)/C(=N/N=C1NC(=O)/C(=C\c3cccc(Br)c3)S1)C2`, the “viability Z-score” value was -5.96.
For the compound `COc1ccc([C@@H]2CC(=O)c3c(O)cc(O[C@@H]4O[C@H](CO[C@@H]5O[C@@H](C)[C@H](O)[C@@H](O)[C@H]5O)[C@@H](O)[C@H](O)[C@H]4O)cc3O2)cc1O` [Hesperidin], the “viability Z-score” value is -1.89.
Take `OC(c1cc(C(F)(F)F)nc2c(C(F)(F)F)cccc12)C1CCCCN1` (stereo not given) [Mefloquine hydrochloride]: the “viability Z-score” value is -4.5.
Consider `O=c1[nH]c(NC2CCCCC2)c([N+](=O)[O-])c(=O)[nH]1`, for which the “viability Z-score” value is -5.53.
In the case of `N#Cc1ccc(C(c2ccc(C#N)cc2)n2cncn2)cc1` [Letrozole] it was -3.59.
`CCOC(=O)c1cc(CC)sc1/N=C/C1C(=O)CCCC1=O`: the “viability Z-score” value is -2.12.
As for `O=C1OC(O)=CN(N1N/C2=N/C=CC=C2)C3=NC=CC=C3`, the “viability Z-score” value is -2.65.
For the compound `CCN[C@H]1C[C@H](C)S(=O)(=O)c2sc(S(N)(=O)=O)cc21` [Dorzolamide hydrochloride], the “viability Z-score” value was -2.64.
Regarding `[Cl]C=3/C=C(/C[S]C=1OC(=NN=1)C2=CC(C)=CC=C2)C=CC=3[Cl]`, the “viability Z-score” value was -5.77.
On to `O=C(NC/C2=N/C=1C=CC=CC=1N2C)C(C)(C)C`, for which the “viability Z-score” value was -4.69.
With `C/C=C/C1=C(C(=O)O)N2C(=O)[C@@H](NC(=O)[C@H](N)c3ccc(O)cc3)[C@H]2SC1` [Cefprozil] the figure was -1.53; with `COC(=O)C1=C(C)NC(C)=C(C(=O)OC)C1C(=O)O`, -3.04; with `CCCc1ccc(C(=O)N2CCC(n3c(=O)oc4ccccc43)CC2)o1`, -3.09.
As for `O=C(NC=2[S]C(C/C1=C/C(C)=CC=C1)=CN=2)C/C3=C/C=CC=C3`, the “viability Z-score” value was -3.33.
Regarding `O=c1c(-c2ccc(O)cc2)coc2cc(O)cc(O)c12` [Genistein], the “viability Z-score” value was -2.35.
In the case of `CC=1N(/N=C(/C)C=1[Br])C/C3=N/N=C(/[S]CC=2C=CC=CC=2[Cl])N3C`, the “viability Z-score” value is -2.33.
With `CCCCCCC[N+](CC)(CC)CCCCc1ccc(Cl)cc1` [Clofilium tosylate] the figure was -3.33.
On to `O=C(NC=1/C=C(/[Br])C=CC=1O)C2=NOC=3CCCCCC2=3`, for which the “viability Z-score” value is -1.43.
With `O=C2N(/C1=C/C(=C(/C)C=C1)[N+](=O)[O-])C(=O)C[C@@]2([H])[S]CC(=O)N/C3=C/C(=CC(=C3)C([F])([F])[F])C([F])([F])[F]` the figure was -4.06.
For the compound `Cc1nn(-c2ccc(F)cc2F)c2c1C(Cl)=C(/C=N/Nc1cc(C(F)(F)F)cc(C(F)(F)F)c1)CC2`, the “viability Z-score” value was -6.94.
Turning to `CC(C)C[C@H](NC(=O)c1cccc(F)c1)c1ccccc1`, the “viability Z-score” value was -1.41.
For the compound `CCN(CC)CCCC(C)Nc1c2ccc(Cl)cc2nc2ccc(OC)cc12` (stereo not given) [Quinacrine dihydrochloride hydrate], the “viability Z-score” value is -3.76.
As for `CC12C[C@H]3C[C@@H](C1)CC(CC(=O)O)(C3)C2`, the “viability Z-score” value was -1.48.
On to `CC(/C=C/C(=O)NO)=C\[C@@H](C)C(=O)c1ccc(N(C)C)cc1` [Trichostatin A], for which the “viability Z-score” value was -4.68.
In the case of `O/C1=C(/C=CC2=CC=CN=C12)[C@@]([H])(N/C3=N/C=CC=C3)C4=CC=C(C=C4)OCCC` it was -2.26; in that of `COc1cccc(/C=N/NC(=O)[C@@H]2CCCN(C(=S)NN[C@H]3C[C@@H]4C=C[C@H]3C4)CC2)c1O`, -6.88.
In the case of `CCOC(=O)[C@@]1(C#N)[C@H](c2ccccc2)C[C@@](O)(c2ccccc2)[C@@H](C(=O)c2ccccc2)[C@@H]1c1ccccc1` it was -8.34; in that of `O=[N+]([O-])c1cc2c(c(COc3ccc(Cl)cc3Cl)c1)OCOC2`, -4.47.
For `Cc1ccc(C(=O)Nc2ccc(S(=O)(=O)[O-])c3cc(S(=O)(=O)[O-])cc(S(=O)(=O)[O-])c23)cc1NC(=O)c1cccc(NC(=O)Nc2cccc(C(=O)Nc3cc(C(=O)Nc4ccc(S(=O)(=O)[O-])c5cc(S(=O)(=O)[O-])cc(S(=O)(=O)[O-])c45)ccc3C)c2)c1.[Na+].[Na+].[Na+].[Na+].[Na+].[Na+]` [Suramin·6Na], the “viability Z-score” value is -1.48.
With `O=C(C[S]/C1=N/N=C2C=CC=CN12)C3=CC=CC=C3` the figure was -3.96; with `CCOC(=O)c1c(NC(=O)CSc2nnc(-c3ccco3)o2)sc(C)c1C`, -3.17; with `CCOC(=O)[C@@H](Cc1cccc(C(=O)OC)c1)NC(=O)c1ccccc1`, -3.84.
As for `O=C(N/C1=C/C=CC2=N[S]N=C12)C4=CC=3OCOC=3C=C4`, the “viability Z-score” value is -4.37.
In the case of `N=C(NC(=O)C=1C=CC=CC=1)NCC/C2=C/NC=3C=CC=CC2=3` it was -4.62; in that of `CSc1ccc([C@H]2C3=C(CCCC3=O)Nc3ccc4ccccc4c32)cc1`, -3.16; in that of `N#CCC(=O)NNC(=O)C2=CC=1C=C/C=C(/CC=C)C=1OC2=O`, -3.89.
In the case of `[F]C([F])([F])C2=C/C(=C(/O/C1=C/C(C)=C([Cl])C(C)=C1)C=C2)N3C=CC=C3` it was -2.33.
Take `Cc1cc(C)c(S(=O)(=O)NC[C@H]2CC[C@H](C(=O)NCCN3CCOCC3)CC2)c(C)c1`: the “viability Z-score” value was -3.46.
As for `N#C/C1=C(/[S]C(C)=C1CC)NC(=O)[C@]2([H])ON=C(C2)C=3/C=C(/[Cl])C(=CC=3OC)OC`, the “viability Z-score” value is -5.7.
As to `CC[N+](C)(CC)CCC[n+]1c(-c2ccccc2)c2cc(N)ccc2c2ccc(N)cc21` [Propidium iodide], the “viability Z-score” value is -5.04.
